Measured values reported in the supplement of paper PMC12823440, “Inhibitors supercharge kinase turnover through native proteolytic circuits” (Nature, 2025).
The other results are listed elsewhere or left out. Hit calls seldom repeat between salt and free forms of one compound.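 Kinases were expressed as nanoluciferase fusions in K562 cells and luminescence was read every 4 h between 2 and 18 h as percent of control, DMSO set to 100% and a positive control to 0%. A time point counts as decreased when the signal drops significantly (2 sigma). The hit call is the authors' own, does not follow from the count of time points alone, and its rule is not shown.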

The chains behind the UniProt entries cited, without tags or fusion partners.
UniProt P29317, whole entry: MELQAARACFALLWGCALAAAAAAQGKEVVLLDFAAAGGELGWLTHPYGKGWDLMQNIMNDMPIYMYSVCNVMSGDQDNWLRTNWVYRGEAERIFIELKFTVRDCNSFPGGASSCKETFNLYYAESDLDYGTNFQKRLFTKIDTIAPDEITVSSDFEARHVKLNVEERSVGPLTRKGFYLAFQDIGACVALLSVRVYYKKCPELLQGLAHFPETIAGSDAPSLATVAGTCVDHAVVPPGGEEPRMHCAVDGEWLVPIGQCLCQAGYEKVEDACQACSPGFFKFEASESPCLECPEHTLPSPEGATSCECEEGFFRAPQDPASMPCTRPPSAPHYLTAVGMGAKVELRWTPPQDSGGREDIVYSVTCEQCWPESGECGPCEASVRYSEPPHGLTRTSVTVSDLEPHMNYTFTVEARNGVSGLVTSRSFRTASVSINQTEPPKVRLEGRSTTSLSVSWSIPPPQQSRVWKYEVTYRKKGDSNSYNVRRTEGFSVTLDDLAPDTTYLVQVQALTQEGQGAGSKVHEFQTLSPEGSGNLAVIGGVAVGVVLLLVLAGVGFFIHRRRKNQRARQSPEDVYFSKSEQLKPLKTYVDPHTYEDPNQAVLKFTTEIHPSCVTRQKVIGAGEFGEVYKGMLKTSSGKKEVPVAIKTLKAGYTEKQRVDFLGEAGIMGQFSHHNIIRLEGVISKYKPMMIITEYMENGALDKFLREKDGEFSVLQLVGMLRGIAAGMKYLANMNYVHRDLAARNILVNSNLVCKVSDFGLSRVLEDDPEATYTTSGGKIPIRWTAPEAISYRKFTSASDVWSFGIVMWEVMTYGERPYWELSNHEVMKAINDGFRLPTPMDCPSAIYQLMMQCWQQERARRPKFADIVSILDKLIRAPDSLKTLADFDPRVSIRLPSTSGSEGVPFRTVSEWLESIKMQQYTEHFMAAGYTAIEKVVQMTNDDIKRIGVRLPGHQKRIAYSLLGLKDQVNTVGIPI
UniProt P21860, whole entry: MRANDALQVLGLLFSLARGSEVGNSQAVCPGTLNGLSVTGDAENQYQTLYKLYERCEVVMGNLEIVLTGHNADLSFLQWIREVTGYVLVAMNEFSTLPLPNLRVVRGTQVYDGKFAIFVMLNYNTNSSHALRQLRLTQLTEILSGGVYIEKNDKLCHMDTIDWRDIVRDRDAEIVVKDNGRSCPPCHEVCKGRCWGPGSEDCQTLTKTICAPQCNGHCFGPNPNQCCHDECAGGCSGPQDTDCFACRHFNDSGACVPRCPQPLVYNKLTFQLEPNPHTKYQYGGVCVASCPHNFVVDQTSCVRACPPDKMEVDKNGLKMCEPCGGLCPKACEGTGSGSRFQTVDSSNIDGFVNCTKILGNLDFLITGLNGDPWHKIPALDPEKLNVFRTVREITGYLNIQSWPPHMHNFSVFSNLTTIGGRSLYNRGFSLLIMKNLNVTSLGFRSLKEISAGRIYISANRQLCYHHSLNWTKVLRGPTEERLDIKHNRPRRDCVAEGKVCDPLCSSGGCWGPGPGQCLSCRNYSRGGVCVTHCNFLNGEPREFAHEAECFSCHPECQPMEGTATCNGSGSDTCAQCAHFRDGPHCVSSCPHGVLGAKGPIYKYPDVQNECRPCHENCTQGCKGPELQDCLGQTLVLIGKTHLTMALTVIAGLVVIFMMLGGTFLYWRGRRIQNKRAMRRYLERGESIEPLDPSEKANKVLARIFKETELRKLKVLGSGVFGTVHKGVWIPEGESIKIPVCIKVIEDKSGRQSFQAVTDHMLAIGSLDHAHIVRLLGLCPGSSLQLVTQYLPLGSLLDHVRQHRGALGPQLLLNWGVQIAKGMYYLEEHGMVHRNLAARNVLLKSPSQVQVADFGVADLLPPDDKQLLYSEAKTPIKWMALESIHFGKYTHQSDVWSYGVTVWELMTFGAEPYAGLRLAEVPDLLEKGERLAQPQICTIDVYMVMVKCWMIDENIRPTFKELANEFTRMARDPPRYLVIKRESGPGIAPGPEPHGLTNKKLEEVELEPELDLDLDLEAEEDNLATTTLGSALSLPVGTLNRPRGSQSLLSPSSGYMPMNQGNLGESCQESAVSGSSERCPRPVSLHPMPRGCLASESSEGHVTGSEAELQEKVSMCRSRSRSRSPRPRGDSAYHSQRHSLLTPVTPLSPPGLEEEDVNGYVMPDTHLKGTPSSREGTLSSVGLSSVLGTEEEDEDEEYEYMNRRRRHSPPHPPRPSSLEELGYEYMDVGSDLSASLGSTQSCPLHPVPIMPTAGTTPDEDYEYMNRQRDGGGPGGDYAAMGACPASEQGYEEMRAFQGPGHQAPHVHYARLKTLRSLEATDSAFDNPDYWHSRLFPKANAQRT
UniProt Q15303, whole entry R711C: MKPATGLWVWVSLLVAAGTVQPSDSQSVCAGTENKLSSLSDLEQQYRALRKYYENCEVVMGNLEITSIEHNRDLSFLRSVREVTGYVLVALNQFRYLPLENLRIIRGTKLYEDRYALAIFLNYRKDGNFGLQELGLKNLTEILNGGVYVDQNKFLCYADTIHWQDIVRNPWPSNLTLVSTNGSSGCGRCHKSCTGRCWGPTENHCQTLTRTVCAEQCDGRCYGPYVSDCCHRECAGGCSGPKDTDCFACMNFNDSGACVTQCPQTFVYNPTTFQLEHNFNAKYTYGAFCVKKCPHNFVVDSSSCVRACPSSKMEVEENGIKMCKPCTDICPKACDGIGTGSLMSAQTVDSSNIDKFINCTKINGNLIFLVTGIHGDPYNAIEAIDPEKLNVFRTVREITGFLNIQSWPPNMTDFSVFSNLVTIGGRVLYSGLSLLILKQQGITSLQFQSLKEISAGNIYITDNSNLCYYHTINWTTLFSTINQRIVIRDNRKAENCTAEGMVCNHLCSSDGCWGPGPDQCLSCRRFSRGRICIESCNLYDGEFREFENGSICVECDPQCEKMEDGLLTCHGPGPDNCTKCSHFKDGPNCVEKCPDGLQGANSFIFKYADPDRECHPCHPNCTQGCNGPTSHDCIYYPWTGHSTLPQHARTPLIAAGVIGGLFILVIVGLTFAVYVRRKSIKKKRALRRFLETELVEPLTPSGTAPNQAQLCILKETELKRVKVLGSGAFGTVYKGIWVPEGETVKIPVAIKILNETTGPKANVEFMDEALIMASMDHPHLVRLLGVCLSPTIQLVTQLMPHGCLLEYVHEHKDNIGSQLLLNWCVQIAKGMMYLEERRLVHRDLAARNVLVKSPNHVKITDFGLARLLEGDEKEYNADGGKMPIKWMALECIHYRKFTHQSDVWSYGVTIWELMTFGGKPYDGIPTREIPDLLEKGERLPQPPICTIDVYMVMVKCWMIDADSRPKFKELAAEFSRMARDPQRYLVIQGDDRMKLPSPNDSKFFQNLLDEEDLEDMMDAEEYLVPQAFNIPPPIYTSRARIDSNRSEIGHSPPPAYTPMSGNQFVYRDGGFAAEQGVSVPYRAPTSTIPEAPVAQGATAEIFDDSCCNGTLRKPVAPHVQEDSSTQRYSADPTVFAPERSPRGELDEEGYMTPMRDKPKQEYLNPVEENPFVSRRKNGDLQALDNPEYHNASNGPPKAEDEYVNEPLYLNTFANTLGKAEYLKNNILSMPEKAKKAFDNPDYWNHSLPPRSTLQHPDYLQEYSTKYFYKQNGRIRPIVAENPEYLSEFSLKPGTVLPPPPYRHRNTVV

Tests used:
Test in all cases: kinase-Nluc reporter destabilization hit call (1 = scored as downregulated) (binary); higher = compound decreases kinase abundance
Conditions in all cases: K562; 2-18 h
EGFR = EGFR (UniProt P00533)
EGFR_G719S = EGFR_G719S (UniProt P00533)
EGFR_G719S_T790M = EGFR_G719S_T790M (UniProt P00533)
EGFR_L718V = EGFR_L718V (UniProt P00533)
EGFR_L858R = EGFR_L858R (UniProt P00533)
EGFR_L861Q = EGFR_L861Q (UniProt P00533)
EGFR_T790M = EGFR_T790M (UniProt P00533)
EPHA2 = EPHA2 (UniProt P29317)
ERBB3 = ERBB3 (UniProt P21860)
[1] = biological target: ERBB4_R711C (clone: ERBB4_mut) (UniProt Q15303)

Measured: kinase-Nluc reporter destabilization hit call

Cc1cc(CSc2ccccc2C(=O)NCCNc2ccc(C(F)(F)F)cc2[N+](=O)[O-])on1 (10 µM)
inactive: EGFR 0 | EGFR_G719S 0 | EGFR_G719S_T790M 0 | EGFR_L718V 0 | EGFR_L858R 0 | EGFR_L861Q 0 | EGFR_T790M 0 | EPHA2 = 0 | ERBB3 = 0 | [1] 0

NS(=O)(=O)c1ccc(Nc2nc(-c3cccc(-c4ccccc4)c3)c3[nH]cnc3n2)cc1 (10 µM)
inactive: EGFR 0 | EGFR_G719S 0 | EGFR_G719S_T790M 0 | EGFR_L718V 0 | EGFR_L858R 0 | EGFR_L861Q 0 | EGFR_T790M 0 | EPHA2 = 0 | ERBB3 = 0 | [1] 0

CC(C)[C@H](CO)Nc1nc(Nc2cccc(Cl)c2)c2ncn(C(C)C)c2n1 [Purvalanol A] (10 µM)
inactive: EGFR 0 | EGFR_G719S 0 | EGFR_G719S_T790M 0 | EGFR_L718V 0 | EGFR_L858R 0 | EGFR_L861Q 0 | EGFR_T790M 0 | EPHA2 = 0 | ERBB3 = 0 | [1] 0

NC[C@@](O)(c1ccc(Cl)cc1)c1ccc(-c2cn[nH]c2)cc1 (10 µM)
inactive: EGFR 0 | EGFR_G719S 0 | EGFR_G719S_T790M 0 | EGFR_L718V 0 | EGFR_L858R 0 | EGFR_L861Q 0 | EGFR_T790M 0 | EPHA2 = 0 | ERBB3 = 0 | [1] 0

Oc1c(F)cc(-c2cnccc2-c2ccc(N3CCOCC3)cc2)cc1F (10 µM)
inactive: EGFR 0 | EGFR_G719S 0 | EGFR_G719S_T790M 0 | EGFR_L718V 0 | EGFR_L858R 0 | EGFR_L861Q 0 | EGFR_T790M 0 | EPHA2 = 0 | ERBB3 = 0 | [1] 0

Copied from above (two entries):
CC(C)[C@H](CO)Nc1nc(Nc2cccc(Cl)c2)c2ncn(C(C)C)c2n1 [Purvalanol A] (10 µM)
inactive: EGFR 0 | EGFR_G719S 0 | EGFR_G719S_T790M 0 | EGFR_L718V 0 | EGFR_L858R 0 | EGFR_L861Q 0 | EGFR_T790M 0 | EPHA2 = 0 | ERBB3 = 0 | [1] 0

NC[C@@](O)(c1ccc(Cl)cc1)c1ccc(-c2cn[nH]c2)cc1 (10 µM)
inactive: EGFR 0 | EGFR_G719S 0 | EGFR_G719S_T790M 0 | EGFR_L718V 0 | EGFR_L858R 0 | EGFR_L861Q 0 | EGFR_T790M 0 | EPHA2 = 0 | ERBB3 = 0 | [1] 0

Carrying on.

COc1cc2c(cc1OC)/C(=C/c1ccc(O)cc1)C(=O)N2 (10 µM)
inactive: EGFR 0 | EGFR_G719S 0 | EGFR_G719S_T790M 0 | EGFR_L718V 0 | EGFR_L858R 0 | EGFR_L861Q 0 | EGFR_T790M 0 | EPHA2 = 0 | ERBB3 = 0 | [1] 0

CN1CCN(c2ccc(Nc3ncc4cc(C#N)c(=O)n(C5CCCC5)c4n3)cc2)CC1 (10 µM)
inactive: EGFR 0 | EGFR_G719S 0 | EGFR_G719S_T790M 0 | EGFR_L718V 0 | EGFR_L858R 0 | EGFR_L861Q 0 | EGFR_T790M 0 | EPHA2 = 0 | ERBB3 = 0 | [1] 0

COc1cc(-c2oc3cc(O)cc(O)c3c(=O)c2O)ccc1O [Isorhamnetin] (10 µM)
inactive: EGFR 0 | EGFR_G719S 0 | EGFR_G719S_T790M 0 | EGFR_L718V 0 | EGFR_L858R 0 | EGFR_L861Q 0 | EGFR_T790M 0 | EPHA2 = 0 | ERBB3 = 0 | [1] 0

Cc1ccc(C)c(OCCn2cc(C(=O)O)c3ccccc32)c1 (10 µM)
inactive: EGFR 0 | EGFR_G719S 0 | EGFR_G719S_T790M 0 | EGFR_L718V 0 | EGFR_L858R 0 | EGFR_L861Q 0 | EGFR_T790M 0 | EPHA2 = 0 | ERBB3 = 0 | [1] 0

Nc1[nH]nc2nc(-c3ccc(NS(=O)(=O)c4cc(Cl)ccc4Cl)cc3)cnc12 (10 µM)
inactive: EGFR 0 | EGFR_G719S 0 | EGFR_G719S_T790M 0 | EGFR_L718V 0 | EGFR_L858R 0 | EGFR_L861Q 0 | EGFR_T790M 0 | EPHA2 = 0 | ERBB3 = 0 | [1] 0

CNC(=O)c1cc2c(Oc3ccc(NC(=O)C4(C(=O)Nc5ccc(F)cc5)CC4)cc3)ccnc2cc1OC (2.5 µM)
inactive: EGFR 0 | EGFR_G719S 0 | EGFR_G719S_T790M 0 | EGFR_L718V 0 | EGFR_L858R 0 | EGFR_L861Q 0 | EGFR_T790M 0 | EPHA2 = 0 | ERBB3 = 0 | [1] 0

N[C@@H]1CCCN(c2c(/C=C3\SC(=O)NC3=O)cccc2-c2ccccc2)C1 (10 µM)
inactive: EGFR 0 | EGFR_G719S 0 | EGFR_G719S_T790M 0 | EGFR_L718V 0 | EGFR_L858R 0 | EGFR_L861Q 0 | EGFR_T790M 0 | EPHA2 = 0 | ERBB3 = 0 | [1] 0

N#C/C(=C\c1ccc(O)c(O)c1)C(=O)O [Tyrphostin AG30] (10 µM)
inactive: EGFR 0 | EGFR_G719S 0 | EGFR_G719S_T790M 0 | EGFR_L718V 0 | EGFR_L858R 0 | EGFR_L861Q 0 | EGFR_T790M 0 | EPHA2 = 0 | ERBB3 = 0 | [1] 0

CCN(CC)CCOc1ccc(Nc2nc(-c3ccccc3NC(=O)CCN3CCN(C)CC3)nc3ccccc23)cc1 (2.5 µM)
inactive: EGFR 0 | EGFR_G719S 0 | EGFR_G719S_T790M 0 | EGFR_L718V 0 | EGFR_L858R 0 | EGFR_L861Q 0 | EGFR_T790M 0 | EPHA2 = 0 | ERBB3 = 0 | [1] 0

Nc1ncc(-c2ccnc(Nc3ccncc3)n2)c(CC2CC2)n1 (10 µM)
inactive: EGFR 0 | EGFR_G719S 0 | EGFR_G719S_T790M 0 | EGFR_L718V 0 | EGFR_L858R 0 | EGFR_L861Q 0 | EGFR_T790M 0 | EPHA2 = 0 | ERBB3 = 0 | [1] 0

Cc1ccc(-n2nc(C(C)(C)C)cc2NC(=O)Nc2ccc(OCCN3CCOCC3)cc2)cc1 (10 µM)
inactive: EGFR 0 | EGFR_G719S 0 | EGFR_G719S_T790M 0 | EGFR_L718V 0 | EGFR_L858R 0 | EGFR_L861Q 0 | EGFR_T790M 0 | EPHA2 = 0 | ERBB3 = 0 | [1] 0

COc1cc(-c2cc(OP(=O)(O)O)cc(-c3cc(OC)c(OC)c(OC)c3)c2)cc(OC)c1OC [Stafia-1] (10 µM)
inactive: EGFR 0 | EGFR_G719S 0 | EGFR_G719S_T790M 0 | EGFR_L718V 0 | EGFR_L858R 0 | EGFR_L861Q 0 | EGFR_T790M 0 | EPHA2 = 0 | ERBB3 = 0 | [1] 0

Cn1ncc(NC(=O)c2nc(-c3c(F)cccc3F)sc2N)c1N1CC[C@@H](N)[C@H](F)CC1 (10 µM)
inactive: EGFR 0 | EGFR_G719S 0 | EGFR_G719S_T790M 0 | EGFR_L718V 0 | EGFR_L858R 0 | EGFR_L861Q 0 | EGFR_T790M 0 | EPHA2 = 0 | ERBB3 = 0 | [1] 0

c1nc2c(NC3CCCCC3)nc(Nc3ccc(N4CCOCC4)cc3)nc2[nH]1 [Reversine] (10 µM)
inactive: EGFR 0 | EGFR_G719S 0 | EGFR_G719S_T790M 0 | EGFR_L718V 0 | EGFR_L858R 0 | EGFR_L861Q 0 | EGFR_T790M 0 | EPHA2 = 0 | ERBB3 = 0 | [1] 0

C[C@@H](Nc1ncnc2[nH]c(-c3ccc(O)cc3)cc12)c1ccccc1 (2.5 µM)
inactive: EGFR 0 | EGFR_G719S 0 | EGFR_G719S_T790M 0 | EGFR_L718V 0 | EGFR_L858R 0 | EGFR_L861Q 0 | EGFR_T790M 0 | EPHA2 = 0 | ERBB3 = 0 | [1] 0

O=C1Nc2ccc(CN3C(=O)CSC3=O)cc2/C1=C/c1cc(CN2CCOCC2)c[nH]1 (10 µM)
inactive: EGFR 0 | EGFR_G719S 0 | EGFR_G719S_T790M 0 | EGFR_L718V 0 | EGFR_L858R 0 | EGFR_L861Q 0 | EGFR_T790M 0 | EPHA2 = 0 | ERBB3 = 0 | [1] 0

C=C1CCC[C@]2(C)C=C3OC(=O)C(C)=C3C[C@@H]12 [Atractylenolide I] (10 µM)
inactive: EGFR 0 | EGFR_G719S 0 | EGFR_G719S_T790M 0 | EGFR_L718V 0 | EGFR_L858R 0 | EGFR_L861Q 0 | EGFR_T790M 0 | EPHA2 = 0 | ERBB3 = 0 | [1] 0

CC(C)n1c([C@H](C)Nc2ncnc(N)c2C#N)cc2cccc(-c3ccc(=O)n(C)c3)c2c1=O (10 µM)
inactive: EGFR 0 | EGFR_G719S 0 | EGFR_G719S_T790M 0 | EGFR_L718V 0 | EGFR_L858R 0 | EGFR_L861Q 0 | EGFR_T790M 0 | EPHA2 = 0 | ERBB3 = 0 | [1] 0

CNC(=O)c1ccc2c(C(=Nc3cccc(CN(C)C)c3)c3ccccc3)c(O)[nH]c2c1 [MEK inhibitor] (10 µM)
inactive: EGFR 0 | EGFR_G719S 0 | EGFR_G719S_T790M 0 | EGFR_L718V 0 | EGFR_L858R 0 | EGFR_L861Q 0 | EGFR_T790M 0 | EPHA2 = 0 | ERBB3 = 0 | [1] 0

COc1cc2cc(Oc3ccc4ccc(=O)oc4c3)c(=O)oc2cc1O [Daphnoretin] (10 µM)
inactive: EGFR 0 | EGFR_G719S 0 | EGFR_G719S_T790M 0 | EGFR_L718V 0 | EGFR_L858R 0 | EGFR_L861Q 0 | EGFR_T790M 0 | EPHA2 = 0 | ERBB3 = 0 | [1] 0

COc1cc2c(cc1Nc1ncc(C(N)=O)c(Nc3c(F)cccc3C(F)(F)F)n1)CN(C)CC2 (2.5 µM)
inactive: EGFR 0 | EGFR_G719S 0 | EGFR_G719S_T790M 0 | EGFR_L718V 0 | EGFR_L858R 0 | EGFR_L861Q 0 | EGFR_T790M 0 | EPHA2 = 0 | ERBB3 = 0 | [1] 0

C=CC(=O)Nc1cccc(Oc2nc(Nc3ccc(N4CCN(C)CC4)c(F)c3)nc3[nH]ccc23)c1 [Avitinib (maleate)] (2.5 µM)
inactive: EGFR 0 | EGFR_G719S 0 | EGFR_G719S_T790M 0 | EGFR_L718V 0 | EGFR_L858R 0 | EGFR_L861Q 0 | EGFR_T790M 0 | EPHA2 = 0 | ERBB3 = 0 | [1] 0

CCn1c(-c2nonc2N)nc2c(C#CC(C)(C)O)ncc(OC[C@H]3CCCNC3)c21 (10 µM)
inactive: EGFR 0 | EGFR_G719S 0 | EGFR_G719S_T790M 0 | EGFR_L718V 0 | EGFR_L858R 0 | EGFR_L861Q 0 | EGFR_T790M 0 | EPHA2 = 0 | ERBB3 = 0 | [1] 0

Clc1ccc(C(c2ccc(Cl)cc2)[n+]2ccn(CC(OCc3ccc(Cl)cc3Cl)c3ccc(Cl)cc3Cl)c2)cc1 (stereo not given) [Calmidazolium chloride] (2.5 µM)
inactive: EGFR 0 | EGFR_G719S 0 | EGFR_G719S_T790M 0 | EGFR_L718V 0 | EGFR_L858R 0 | EGFR_L861Q 0 | EGFR_T790M 0 | EPHA2 = 0 | ERBB3 = 0 | [1] 0
